Values of other authors, collected in article PMC9740255 (Cells, 2022).

Target: hNET
Set-up: method as in ref 32 (Tatsumi et al. 1997)
Settings: footnote a: hNET in HEK293 cells, [3H]nisoxetine; ref 32 (Tatsumi et al. 1997); read-out: NET Ki; cited from earlier work

Compound: CNCCC(Oc1ccc(C(F)(F)F)cc1)c1ccccc1 (stereo not shown) [Fluoxetine]
- Ki: 240 ± 10 nM
